Among the test systems are KLF4 + histone octamer; OCT4 + histone octamer; SOX2 + histone octamer.
Common to all, as to assay: EMSA with sequencing
What all share (conditions): 10 mM Tris-Cl pH 7.5, 50 mM NaCl, 1 mM DTT, 0.25 mg/ml BSA, 2 mM MgCl2, 0.025% Nonidet P-40, 5% glycerol; 28 nM nucleosome library; 10 min on ice then 30 min …; high values mean tight binding; double strand, one strand shown

The subject of assay [1] is c-MYC + MAX + histone octamer.

Some of the results follow.

With “GATGGACCCTATACGCGGCTGAATGCCTGTGTGTTCAGTGAACTCTTCCCCTTTGGTGGGTTGGAACTCAGATGTATCCGAATCCCCTGTGAGCTCCGAGAATTGTTCAGCTTACAGCTGCCTGTACATTCTTTGCTCAGACCCATGGAGCTTTGTGTTATGCACATACAGCTTAGTATTCAGCCAGAGCCTCCATTGGACCCACAGGCATGCCAGTCGGATAGTGTTCC”, the binding signal (log2 relative supershift) came to 1.79 in the assay on KLF4 + histone octamer, 0.161 in the assay with OCT4 + histone octamer, 0.995 in the assay on SOX2 + histone octamer and 0.672 in assay [1].
With “GATGGACCCTATACGCGGCGTCCCTTACCCCTCTACCCACTCACCCTTTAACTGTGCTTCTGTGTTTGTGTTTCTGTATATACCTGGGTGTATGCATATGCAGCAGGGTGGGTGTATGTACATATACAACCATTTGAGAAGCTGCATAGTGCCGTGTCTAGTGGTGTAAATCTACATTGGTGTGTACAGAATTGTATCTACAGCATGTGGTGCCAGTCGGATAGTGTTCC”, the binding signal (log2 relative supershift) in the assay with KLF4 + histone octamer was 1.5; with OCT4 + histone octamer it was 0.00821; in the assay with SOX2 + histone octamer, 0.246; in assay [1], 0.827.
Consider “GATGGACCCTATACGCGGCTATTATCCGTTCATTATTGTCATGTTCTTCCTTAAAAGAAGGTGGGGCATCTGCTTGTTGGATTCAGGCAGAGCATGATTTTTAATATGTATATTCTTGGTCTTAAGCCACGAAAGTGTTGTAAATCACCAGCAAACAGCACTAAGTATTATCGTCCTCTAGGCACTGAAAATTTGAAATGAGCTGCTGACTGCCAGTCGGATAGTGTTCC”, for which the binding signal (log2 relative supershift) with KLF4 + histone octamer is 0.922; in the assay with OCT4 + histone octamer it was 0.192; in the assay on SOX2 + histone octamer, 1.45; in assay [1], 0.155.
On to “GATGGACCCTATACGCGGCGTAATAGGTAGCTCACTATTTGGCTGGGTAGGGTAAACCGCCTGGTCAAGCCTGTTCATACAGGCATGCCAACTGCATATGCACTGTAAAGACCTTCCCCTAAAGGCCTCTTCTCCAAGGTCCCTCAGCTGTGCTTAGGTCTCTCTTTAGCTTCAGGGTAGCTCTCCTGTATGTCTGAGCCTCAGATAAGCTGCCAGTCGGATAGTGTTCC”, for which the binding signal (log2 relative supershift) was determined as 1.88 with KLF4 + histone octamer, 0.206 in the assay on OCT4 + histone octamer, 0.356 in the assay on SOX2 + histone octamer and 0.415 in assay [1].
Regarding “GATGGACCCTATACGCGGCTGTGAGAAATTAGAACCCTCATACATTGTTGGTGGGGATGTAAAATGATGCTATCACTTTGGCAAACAGTTTGGCAGCACCTCAAAATGTGAAACATAGAATTAGCATATGACCCAGCAATTCCAGCCCGATGTATCTACCCACAATGCATATGTCCCCACAAAAACCTGTGCATGAATGTTCATAACAGCTGCCAGTCGGATAGTGTTCC”, the binding signal (log2 relative supershift) with KLF4 + histone octamer amounted to 1.82; in the assay on OCT4 + histone octamer, 0.314; with SOX2 + histone octamer it was 1.28; in assay [1], 0.155.
As for “GATGGACCCTATACGCGGCCTTGGGTGTGGTTAGACAAGGCCTCATCATGCATGCCATGTGCCCGTGGCAGCCAGAGAAGCCCACAGGGATGGAGAAGCTTGCTGGCACATGGGTGTGTCTGCTGAGGTCCTAGGGTGGAGGGGAGGTGTGGCAATGCACAAGGTGCAGGCAGGAGACGATTCGAGTCACTCAGGCTCCCTGGTCCTTGCTGCCAGTCGGATAGTGTTCC”, the binding signal (log2 relative supershift) in the assay on KLF4 + histone octamer is 2.67; in the assay on OCT4 + histone octamer it was 0.543; in the assay with SOX2 + histone octamer it was 0.382; in assay [1], 1.47.
For “GATGGACCCTATACGCGGCGACATTAGTTATTGACTTCCTGCTATGGAGATAGGTATTTGGCTCTCTCATCCACTGTCCTCCACACTCTTTAGCCACTCAGCAACACAAAGGCCTTTCTGCCCATCCCGCCAGAGTATGTTGTAACATAGCTTTTTGCTAAACTGTATTTAACATTTATGACAATAAGTATTCACATTCGAGCCATGTAGTGCCAGTCGGATAGTGTTCC” the same measures were 0.0328, 0.459, 1.5 and 0.0905.
In the case of “GATGGACCCTATACGCGGCCCTAAGCCATGCTCTTTGTTCCTTTACTTTTGCACATGCTGATTCTTCTGCCTAGACACTCCTCCCATCCACACCCCTCCCTAAATCCCCTTCATCTGCATGCACTCATGTACTCTTACATAACTTGCAATATGCTAGTCATCTTTCAATATCCAGCACAGCTGCTGCTGTTACCATTTCACTAAAGTCACTGCCAGTCGGATAGTGTTCC”, the binding signal (log2 relative supershift) in the assay with KLF4 + histone octamer is 0.373; with OCT4 + histone octamer it was 0.353; with SOX2 + histone octamer, 1.03; in assay [1], 0.677.
The like results for “GATGGACCCTATACGCGGCTACGAAACTGATGAGGGCTGGGCGTCTCATTTACATAAGGTGTGAATTTCTGGTACCTCCACCCCGTCCTGCTAGTGTACATGTGGGCCCTTAGCTTGAGTTACTCCATAATGCTTTGTTCCCCTTACTGCACATGTGTTAGGGGATGGAATTTTCCATTGTGGCCATGTCTGGGCAAGTCATCTCTGTAATGCCAGTCGGATAGTGTTCC” were, in that order, 2, 1.07, 1.24 and 0.115.
“GATGGACCCTATACGCGGCATAAGGAACAAGAATTAAGTAATTGGGAAGGGCCCTGGATGCTCAGGCCACACCCACATGGGAATACCTGCCCCACATGGAGGCTCAGGCCAGCTCCACCAATCACCAATCAGCTCCTCCTCTTTCCCTAAATCGGCCTTCTCCGTCCCTCTTAGCCTATCACATTGCAAGCTCCACCTCTATTCCACGTTTGCCAGTCGGATAGTGTTCC”: the binding signal (log2 relative supershift) in the assay on KLF4 + histone octamer was found to be 2.65; with OCT4 + histone octamer, 0.329; with SOX2 + histone octamer, 0.499; in assay [1] it was 0.739.

The record behind these values is article PMC12370185.
